The record followed here is paper PMC10258192.

Results are given in words; binding and its absence hold for the method and conditions named. Some entries that bind do so weakly or less than the wild type. Sequences can lack the tags named with a protein.

The target in the test is T1, mEGFP-SRSF2, Q01130.
T1 chain: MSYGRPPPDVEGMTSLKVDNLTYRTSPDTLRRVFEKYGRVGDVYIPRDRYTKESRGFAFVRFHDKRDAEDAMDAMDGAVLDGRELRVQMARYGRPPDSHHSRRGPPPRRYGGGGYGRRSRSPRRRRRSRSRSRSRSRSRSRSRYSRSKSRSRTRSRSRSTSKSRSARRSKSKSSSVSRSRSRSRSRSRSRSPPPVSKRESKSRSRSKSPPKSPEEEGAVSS
Kind of test: native gel or EMSA; native-PAGE of the purified proteins; both purified. To be noted: remark: other sources report otherwise. (In general: Mobility shift assays separate free from complexed probe on a gel.)

B1: mEGFP-SRSF2, Q01130 1-221 (natural protein)
chain: MSYGRPPPDVEGMTSLKVDNLTYRTSPDTLRRVFEKYGRVGDVYIPRDRYTKESRGFAFVRFHDKRDAEDAMDAMDGAVLDGRELRVQMARYGRPPDSHHSRRGPPPRRYGGGGYGRRSRSPRRRRRSRSRSRSRSRSRSRSRYSRSKSRSRTRSRSRSTSKSRSARRSKSKSSSVSRSRSRSRSRSRSRSPPPVSKRESKSRSRSKSPPKSPEEEGAVSS
Regarding B1, the binding result is recorded as “binds”.
